According to patent publication US20130059292:
For some assays here: At least one result comes from cells or an extract, where the contact may be indirect. For some assays here: For at least one entry, the source does not settle the construct or the ends of the probe.

Chains of the proteins cited; added tags and fusions are not shown. Lines headed by an entry give the natural chain unless they say otherwise; changes in a name come on top. Residues count along the entry.
UniProt P07288, 25-261: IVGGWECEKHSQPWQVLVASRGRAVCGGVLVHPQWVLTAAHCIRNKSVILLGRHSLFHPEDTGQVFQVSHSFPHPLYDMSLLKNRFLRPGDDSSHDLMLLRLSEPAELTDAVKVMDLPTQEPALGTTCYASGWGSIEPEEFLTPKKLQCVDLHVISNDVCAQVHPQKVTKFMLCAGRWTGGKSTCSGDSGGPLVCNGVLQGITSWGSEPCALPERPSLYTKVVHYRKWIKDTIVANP
UniProt P31751: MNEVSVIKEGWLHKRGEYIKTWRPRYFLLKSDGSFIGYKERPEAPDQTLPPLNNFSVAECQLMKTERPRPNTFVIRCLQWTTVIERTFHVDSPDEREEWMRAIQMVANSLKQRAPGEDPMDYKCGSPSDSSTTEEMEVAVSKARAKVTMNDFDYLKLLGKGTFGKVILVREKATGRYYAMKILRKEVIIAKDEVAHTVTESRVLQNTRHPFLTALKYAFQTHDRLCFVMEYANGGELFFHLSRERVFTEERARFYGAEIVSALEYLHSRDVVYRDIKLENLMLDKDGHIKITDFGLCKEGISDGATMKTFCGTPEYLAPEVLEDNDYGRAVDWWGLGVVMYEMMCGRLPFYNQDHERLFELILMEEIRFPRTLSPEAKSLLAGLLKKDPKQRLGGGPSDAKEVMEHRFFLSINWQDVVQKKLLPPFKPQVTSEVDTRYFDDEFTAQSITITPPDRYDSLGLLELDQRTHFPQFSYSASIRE

Key:
Test in all cases: pull-down
[1] = target: PSA (prostate specific antigen) (UniProt P07288); conditions: 5-BzdU (5-(N-benzylcarboxyamide)-2'-deoxyuridine) at positions printed as 5 (n in listing) [n positions 6,7,8,10,13,14,15,16,28,33,34,39,40,42 = modified dU]; 10% FBS or HEK293T lysate, 1 mM dextran sulfate; MALDI-MS confirmed; purified recombinant protein; label: biotin; single-stranded DNA
[2] = target: EGFR (UniProt P00533); conditions: 5-NapdU (5-(N-naphthylcarboxyamide)-2'-deoxyuridine) at positions printed as 6 (n in listing) [n positions 14,15,17,22,24,27,31,33,37,38,39,44 = modified dU], label: biotin, or NH2/SH coupled to beads, single-stranded DNA
[3] = target: AKT2 (Homo sapiens) (UniProt P31751); conditions: 5-BzdU (5-(N-benzylcarboxyamide)-2'-deoxyuridine) at positions printed as 5 (n in listing) [n positions 7,8,9,14,15,16,18,21,26,27,30,32,40,41,42,44 = modified dU]; MCF7 lysate; Western with anti-Akt and MS (Mascot score 72, 4 peptides); protein in an extract; protein details: endogenous, MCF7 cell lysate; label: SH coupled to magnetic agarose beads; single-stranded DNA
[4] = system: Insulin receptor (IR) (Homo sapiens); conditions: 5-BzdU (5-(N-benzylcarboxyamide)-2'-deoxyuridine) at positions printed as 5 (n in listing) [n positions 6,11,12,13,18,19,24,27,30,33,35,41 = modified dU]; captures alpha and beta subunits; eluted by free aptamer or 20 mM EDTA; Western and MALDI-MS confirmed; protein in a lysate after overexpression; protein details: Rat-1 cells stably expressing human IR; label: biotin, or SH coupled to beads; single-stranded DNA
[5] = system: Insulin receptor (IR); conditions: 5-BzdU (5-(N-benzylcarboxyamide)-2'-deoxyuridine) at positions printed as 5 (n in listing) [n positions 6,11,12,13,18,19,24,27,30,33,35,41 = modified dU]; 10% FBS or HEK293T lysate, 1 mM dextran sulfate; MALDI-MS confirmed; purified recombinant protein; label: biotin, or SH coupled to beads; single-stranded DNA
[6] = target: ErbB2 (HER2) (UniProt P04626); conditions: 5-NapdU (5-(N-naphthylcarboxyamide)-2'-deoxyuridine) at positions printed as 6 (n in listing) [n positions 1,4,9,11,12,16,24,25,26,29,30 = modified dU], label: biotin, or NH2/SH coupled to beads, single-stranded DNA

“ACGAGTTTGTGGTTTTGGACAGGCAGCTGACGTTGGGCTTCTCGCAACA [PSA aptamer #1660-07]”: binds [1].

“AGTTCAGCCCCGGTTATACGGTCTCATGCCTGTGCGTTTAACCTAGACCA [EGFR aptamer #1193-50]”: binds ([2]; 5 mM Mg2+ lysis buffer, needs salmon sperm DNA or dextran sulfate competitor (no significant EGFR band without, p104), eluted by 20 mM EDTA 60 C, DNase I or Exo I, protein in an extract, protein details: endogenous, A431 cell lysate); binds ([2]; spiked in 10% FBS or HEK293T lysate, 1 mM dextran sulfate or other polyanions, dose dependent on aptamer beads, purified recombinant protein).

“AGTTCCTTTACCCTTTGTGGTCGACTTCCTATGGAGGAGTTTATGGACCA [Akt aptamer #2153-02-02]”: binds [3].

“GCCTGTAAGGTTTAAGCTTGGCCTAATGGTGCTATCAGGCTC [IR aptamer #1652-36]”: binds [4]; binds [5].

“TCCTGGCATGTTCGATGGAGGCCTTTGATTACAGCCCAGA [ErbB2 aptamer #1194-34]”: binds ([6]; 10% FBS or HEK293T lysate, 1 mM dextran sulfate, dose dependent on aptamer beads, purified recombinant protein); binds ([6]; eluted by free ErbB2 aptamer or 20 mM EDTA, MALDI-MS confirmed, protein in a lysate after overexpression, protein details: MCF7 cells stably expressing human ERBB2).
